According to PubChem BioAssay (Tox21):
The source calls these results inconclusive, neither active nor inactive. Unless noted, calls come from the whole dose curve; as a rule, active = well fitted curve in the direction sought with a large enough effect in the repeat runs; inconclusive = weak or mixed curves; inactive = no such curve, though single readings can be large; an effect the other way counts as inactive or inconclusive.

By UniProt entry, the sequences of proteins in these tests, tags left out.
UniProt P19793, whole entry: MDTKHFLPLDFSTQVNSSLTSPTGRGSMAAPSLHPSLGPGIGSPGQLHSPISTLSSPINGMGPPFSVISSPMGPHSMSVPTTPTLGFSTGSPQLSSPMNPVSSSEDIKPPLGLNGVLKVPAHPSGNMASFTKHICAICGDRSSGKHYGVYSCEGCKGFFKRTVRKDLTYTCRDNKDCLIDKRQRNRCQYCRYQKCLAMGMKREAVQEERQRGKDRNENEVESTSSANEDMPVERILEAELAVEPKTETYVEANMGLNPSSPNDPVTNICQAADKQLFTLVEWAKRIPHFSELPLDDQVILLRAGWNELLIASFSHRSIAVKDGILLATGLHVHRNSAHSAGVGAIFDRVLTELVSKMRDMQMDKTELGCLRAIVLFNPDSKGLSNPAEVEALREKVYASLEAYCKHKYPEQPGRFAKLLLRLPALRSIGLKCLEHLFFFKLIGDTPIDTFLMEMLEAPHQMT
UniProt Q14994, whole entry: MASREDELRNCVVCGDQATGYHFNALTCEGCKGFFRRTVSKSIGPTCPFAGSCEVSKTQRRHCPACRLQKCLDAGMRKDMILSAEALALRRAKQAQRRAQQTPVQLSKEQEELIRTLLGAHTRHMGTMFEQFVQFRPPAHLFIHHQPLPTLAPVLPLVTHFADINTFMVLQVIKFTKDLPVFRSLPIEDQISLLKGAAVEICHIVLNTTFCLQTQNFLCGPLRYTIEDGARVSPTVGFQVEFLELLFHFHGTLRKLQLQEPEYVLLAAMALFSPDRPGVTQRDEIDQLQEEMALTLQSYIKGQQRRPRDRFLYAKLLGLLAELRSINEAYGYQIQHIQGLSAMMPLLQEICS
UniProt P16473, whole entry: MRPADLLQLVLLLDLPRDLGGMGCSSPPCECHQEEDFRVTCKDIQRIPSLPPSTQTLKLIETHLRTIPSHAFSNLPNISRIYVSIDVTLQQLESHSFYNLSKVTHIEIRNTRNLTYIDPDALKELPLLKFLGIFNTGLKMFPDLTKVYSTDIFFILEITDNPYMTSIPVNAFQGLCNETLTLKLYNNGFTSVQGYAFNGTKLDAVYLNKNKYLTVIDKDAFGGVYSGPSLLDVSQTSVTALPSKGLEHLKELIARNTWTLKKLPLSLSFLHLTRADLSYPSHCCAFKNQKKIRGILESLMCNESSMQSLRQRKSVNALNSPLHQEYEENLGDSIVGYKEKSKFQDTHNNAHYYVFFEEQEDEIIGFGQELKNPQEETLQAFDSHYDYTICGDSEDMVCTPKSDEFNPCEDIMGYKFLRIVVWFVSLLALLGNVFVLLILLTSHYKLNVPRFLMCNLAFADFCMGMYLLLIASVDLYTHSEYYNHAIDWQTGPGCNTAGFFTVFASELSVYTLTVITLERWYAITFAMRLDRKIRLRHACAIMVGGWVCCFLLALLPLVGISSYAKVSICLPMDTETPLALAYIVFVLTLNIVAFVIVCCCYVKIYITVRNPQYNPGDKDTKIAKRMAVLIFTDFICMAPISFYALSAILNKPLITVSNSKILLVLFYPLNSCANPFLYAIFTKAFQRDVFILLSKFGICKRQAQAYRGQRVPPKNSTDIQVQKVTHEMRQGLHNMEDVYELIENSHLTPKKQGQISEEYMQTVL
UniProt P03372, whole entry: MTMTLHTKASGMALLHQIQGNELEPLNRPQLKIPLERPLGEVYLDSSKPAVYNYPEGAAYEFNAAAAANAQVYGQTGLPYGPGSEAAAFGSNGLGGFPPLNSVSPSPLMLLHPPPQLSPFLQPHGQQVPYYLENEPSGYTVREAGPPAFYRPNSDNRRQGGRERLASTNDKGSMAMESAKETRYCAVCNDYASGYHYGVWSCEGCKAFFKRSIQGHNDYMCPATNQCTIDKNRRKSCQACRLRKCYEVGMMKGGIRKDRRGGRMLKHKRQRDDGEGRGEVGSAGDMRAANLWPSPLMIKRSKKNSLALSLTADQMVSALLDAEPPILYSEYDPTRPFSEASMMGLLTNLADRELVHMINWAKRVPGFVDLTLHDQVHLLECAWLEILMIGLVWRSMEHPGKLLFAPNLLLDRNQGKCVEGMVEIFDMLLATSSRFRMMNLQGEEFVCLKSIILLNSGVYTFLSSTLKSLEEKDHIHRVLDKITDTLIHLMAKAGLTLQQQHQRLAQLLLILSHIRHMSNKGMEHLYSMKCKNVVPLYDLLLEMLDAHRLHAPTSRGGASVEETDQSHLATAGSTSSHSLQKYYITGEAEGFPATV
UniProt Q92731, whole entry: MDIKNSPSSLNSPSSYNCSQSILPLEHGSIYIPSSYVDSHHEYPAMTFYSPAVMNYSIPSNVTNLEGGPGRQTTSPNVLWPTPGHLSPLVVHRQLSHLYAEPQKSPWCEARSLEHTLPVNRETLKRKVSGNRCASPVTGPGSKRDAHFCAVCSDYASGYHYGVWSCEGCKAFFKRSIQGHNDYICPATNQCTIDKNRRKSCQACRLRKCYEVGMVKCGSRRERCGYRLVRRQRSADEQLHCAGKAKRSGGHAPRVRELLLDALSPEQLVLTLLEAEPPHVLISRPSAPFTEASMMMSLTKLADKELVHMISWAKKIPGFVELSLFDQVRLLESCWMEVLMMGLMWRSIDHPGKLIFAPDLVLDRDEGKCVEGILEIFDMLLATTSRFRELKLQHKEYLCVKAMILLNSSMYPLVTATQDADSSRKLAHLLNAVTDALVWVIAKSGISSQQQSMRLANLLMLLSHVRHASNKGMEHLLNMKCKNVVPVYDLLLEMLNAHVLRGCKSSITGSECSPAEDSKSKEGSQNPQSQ
UniProt P06401, whole entry: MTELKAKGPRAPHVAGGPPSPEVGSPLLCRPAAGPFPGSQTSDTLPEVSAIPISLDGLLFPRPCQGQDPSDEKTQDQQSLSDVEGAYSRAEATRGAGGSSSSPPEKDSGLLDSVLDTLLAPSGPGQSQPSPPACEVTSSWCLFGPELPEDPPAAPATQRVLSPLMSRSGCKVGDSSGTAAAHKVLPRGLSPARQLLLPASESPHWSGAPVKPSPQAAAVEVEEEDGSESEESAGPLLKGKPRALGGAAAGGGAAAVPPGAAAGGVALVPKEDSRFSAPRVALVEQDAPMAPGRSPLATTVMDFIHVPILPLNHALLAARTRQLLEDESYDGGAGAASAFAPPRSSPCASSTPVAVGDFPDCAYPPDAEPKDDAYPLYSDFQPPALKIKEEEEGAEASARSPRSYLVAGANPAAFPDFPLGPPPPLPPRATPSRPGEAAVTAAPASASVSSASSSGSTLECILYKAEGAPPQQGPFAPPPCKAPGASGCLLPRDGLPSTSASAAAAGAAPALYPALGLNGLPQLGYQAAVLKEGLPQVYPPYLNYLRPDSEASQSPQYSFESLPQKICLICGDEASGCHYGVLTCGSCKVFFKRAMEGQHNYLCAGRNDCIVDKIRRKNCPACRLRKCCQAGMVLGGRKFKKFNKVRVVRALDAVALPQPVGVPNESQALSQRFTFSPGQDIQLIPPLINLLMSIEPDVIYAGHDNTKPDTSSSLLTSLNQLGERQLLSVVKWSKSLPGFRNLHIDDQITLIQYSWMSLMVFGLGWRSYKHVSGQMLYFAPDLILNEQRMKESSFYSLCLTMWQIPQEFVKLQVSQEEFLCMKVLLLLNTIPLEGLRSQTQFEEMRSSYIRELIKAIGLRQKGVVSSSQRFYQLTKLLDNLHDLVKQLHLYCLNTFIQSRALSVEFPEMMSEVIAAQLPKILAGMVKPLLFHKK
UniProt O75469, whole entry: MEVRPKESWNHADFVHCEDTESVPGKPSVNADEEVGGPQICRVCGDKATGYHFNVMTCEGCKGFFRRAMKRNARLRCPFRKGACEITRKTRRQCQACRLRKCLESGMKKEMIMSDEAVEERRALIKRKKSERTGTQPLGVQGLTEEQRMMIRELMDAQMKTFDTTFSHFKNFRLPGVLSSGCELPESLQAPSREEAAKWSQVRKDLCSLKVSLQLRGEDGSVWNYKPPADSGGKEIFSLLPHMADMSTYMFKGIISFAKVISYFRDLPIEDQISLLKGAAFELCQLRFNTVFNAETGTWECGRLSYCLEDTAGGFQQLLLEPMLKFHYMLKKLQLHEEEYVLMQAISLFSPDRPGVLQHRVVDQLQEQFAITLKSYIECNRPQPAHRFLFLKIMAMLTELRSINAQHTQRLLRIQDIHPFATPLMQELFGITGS
UniProt P11712, whole entry: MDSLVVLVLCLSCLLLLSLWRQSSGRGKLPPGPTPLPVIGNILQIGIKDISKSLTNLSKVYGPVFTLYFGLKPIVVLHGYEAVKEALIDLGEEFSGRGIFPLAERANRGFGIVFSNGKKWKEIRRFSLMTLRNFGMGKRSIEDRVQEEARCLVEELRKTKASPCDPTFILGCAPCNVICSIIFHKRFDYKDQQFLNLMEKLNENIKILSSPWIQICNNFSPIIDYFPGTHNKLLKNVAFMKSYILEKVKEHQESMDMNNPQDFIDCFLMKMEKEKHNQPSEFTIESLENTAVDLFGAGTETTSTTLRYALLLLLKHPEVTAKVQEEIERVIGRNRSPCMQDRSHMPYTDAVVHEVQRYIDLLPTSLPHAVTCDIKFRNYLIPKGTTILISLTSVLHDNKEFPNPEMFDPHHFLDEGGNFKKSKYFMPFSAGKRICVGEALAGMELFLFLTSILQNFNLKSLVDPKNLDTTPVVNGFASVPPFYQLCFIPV

Assays:
[1] = qHTS assay to identify small molecule agonists of the endoplasmic reticulum stress response signaling pathway - cell viability counter screen (AID 1159517; calls by dose curve; note: potency is the fitted concentration of half-maximal effect; nearly all actives have a fitted effect of over 50% in size); details: ESRE-bla HeLa viability, CellTiter-Glo luminescence, 5 h
Summary of the method: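 HeLa cells carrying an ESRE-driven beta-lactamase reporter receive compound for 5 hr at 37 C. Cell viability is then gauged with CellTiter-Glo by luminescence, 30 min at room temperature.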

[2] = qHTS assay to identify small molecule agonists of the AP-1 signaling pathway (AID 1159526; calls by dose curve; note: % is set by controls: 0 for no effect and ±100 for the full control effect); details: ME-180 (cervical carcinoma) AP-1-bla reporter, beta-lactamase FRET ratio, 5 h; at 76.8 µM (top of the series) unless noted
[3] = molecular target: Retinoic acid receptor RXR-alpha (Homo sapiens) (UniProt P19793); experiment: qHTS assay to identify small molecule agonists of the RXR signaling pathway (AID 1159527; calls by dose curve; note: potency is the fitted concentration of half-maximal effect; nearly all actives have a fitted effect of over 35% in size); details: HEK293T RXRa-UAS-bla, beta-lactamase ratio, 16 h; activation: at 76.8 µM (top of the series) unless noted
Summary of the method: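 Compounds in DMSO were added to RXR-alpha-UAS-bla HEK 293T cells kept in 2% charcoal-stripped serum, and incubated 16 hr at 37 C with 5% CO2. Reporter signal came from a 2 hr B/G FRET substrate step.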

[4] = molecular target: Nuclear receptor subfamily 1 group I member 3 (Homo sapiens) (UniProt Q14994); experiment: qHTS assay to identify small molecule agonists of the constitutive androstane receptor (CAR) signaling pathway (AID 1224839); details: HepG2 hCAR CYP2B6-luciferase, agonist mode, 24 h; note: potency is the fitted concentration of half-maximal effect; nearly all actives have a fitted effect of over 15% in size
[5] = molecular target: Thyrotropin receptor (Homo sapiens) (UniProt P16473); experiment: qHTS assay to identify small molecule agonists of the thyroid stimulating hormone receptor (TSHR) signaling pathway (AID 1224843; calls by dose curve; note: potency is the fitted concentration of half-maximal effect; nearly all actives have a fitted effect of over 45% in size); details: TSHR-HEK293 cells, cAMP HTRF, agonist mode, 30 min; activation: at 92.4 µM (top of the series)
[6] = qHTS assay to identify small molecule agonists of the hypoxia (HIF-1) signaling pathway (AID 1224846; active = well fitted activation curve with a large enough effect in the signal ratio in the repeat runs, not every such curve was filed as active; inconclusive = weak or mixed curves; the % refers to the signal ratio; note: potency is the fitted concentration of half-maximal effect); details: HRE-bla ME-180 cells, beta-lactamase ratio, 17 h
Summary of the method: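 A low-serum medium (0.5% dialyzed FBS) holding 2,000 HRE-bla ME-180 cells per well is preincubated for 5 hrs, dosed with compounds by pintool, and kept a further 17 hrs at 37C, 5% CO2 before CCF4-AM FRET detection of beta-lactamase.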

[7] = qHTS assay to identify small molecule agonists of the estrogen related receptor (ERR) signaling pathway from Tox21 library (AID 1224849; calls by dose curve; note: % is set by controls: 0 for no effect and ±100 for the full control effect; nearly all actives have a fitted effect of over 15% in size); details: ERR reporter cell line, ONE-Glo luciferase, 18 h; at 92.4 µM (top of the series)
Summary of the method: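 Screening used an NTP-provided ERR luciferase cell line. Compounds in DMSO were added 6 h after seeding and left 18 h at 37 C before a 30 min ONE-Glo step and luminescence reading.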

[8] = qHTS RealTime-Glo MT Cell Viability Assay in HEK293 cells - 32 hour (AID 1224868); details: RealTime-Glo luminescence; note: potency is the fitted concentration of half-maximal effect; nearly all actives have a fitted effect of over 50% in size
Summary of the method: (§1)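 HEK293 cells seeded with NanoLuc/prosubstrate reagent, rested 5 h at 37 C, then dosed and kept at 37 C up to 40 h. Nonlytic real-time luminescence from viable cells read at 0, 8, 16, 24, 32 and 40 h.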

[9] = qHTS RealTime-Glo MT Cell Viability Assay in HEK293 cells - 16 hour (AID 1224872); details: RealTime-Glo luminescence; note: potency is the fitted concentration of half-maximal effect; nearly all actives have a fitted effect of over 50% in size
Summary of the method: as §1

[10] = qHTS RealTime-Glo MT Cell Viability Assay in HEK293 cells - 40 hour (AID 1224874); details: RealTime-Glo luminescence; note: potency is the fitted concentration of half-maximal effect; nearly all actives have a fitted effect of over 50% in size
Summary of the method: (§2)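 Viable HEK293 cells reduce a cell-permeant prosubstrate; the product diffuses out and is consumed by NanoLuc in the medium to give light. Compounds went in after a 5 h incubation and plates were read over the treatment course.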

[11] = qHTS RealTime-Glo MT Cell Viability Assay in HEK293 cells - 0 hour (AID 1224880); details: RealTime-Glo luminescence; note: potency is the fitted concentration of half-maximal effect; nearly all actives have a fitted effect of over 45% in size
Summary of the method: as §2

[12] = qHTS RealTime-Glo MT Cell Viability Assay in HEK293 cells - 24 hour (AID 1224886); details: RealTime-Glo luminescence
Summary of the method: as §1

[13] = qHTS RealTime-Glo MT Cell Viability Assay in HEK293 cells - 8 hour (AID 1224887); details: RealTime-Glo luminescence
Summary of the method: as §2

[14] = qHTS assay to identify small molecule antagonists of the estrogen receptor alpha (ER-alpha) signaling pathway using the BG1 cell line in the presence of 0.1 nM 17-beta-estradiol - cell viability counter screen (AID 1259241); details: VM7Luc4E2 (BG1) viability, CellTiter-Fluor protease, 22 h; 0.1 nM estradiol agonist added; note: potency is the fitted concentration of half-maximal effect; nearly all actives have a fitted effect of over 40% in size
Summary of the method: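 Following 5 days in phenol red-free medium with charcoal-stripped serum, VM7Luc4E2 cells received test compounds alongside 0.1 nM 17beta-estradiol (final) at 37C for 22 hr. Live cells were then quantified via protease-substrate fluorescence.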

[15] = molecular target: Estrogen receptor (Homo sapiens) (UniProt P03372); experiment: qHTS assay to identify small molecule antagonists of the estrogen receptor alpha (ER-alpha) signaling pathway using the BG1 cell line in the presence of 0.1 nM 17-beta-estradiol (AID 1259244); details: VM7Luc4E2 (BG1) ERE-luciferase, antagonist mode, 0.1 nM E2, 22 h
[16] = qHTS assay to identify small molecule antagonists of the sonic hedgehog signaling (Shh) pathway (AID 1259369; calls by dose curve; note: potency is the fitted concentration of half-maximal effect; nearly all actives have a fitted effect of over 45% in size); details: NIH/3T3 Gli1-Luc reporter, Shh antagonist, luminescence 24 h
Summary of the method: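 For antagonist detection, the reporter line received test compounds together with conditioned medium, incubated 24hr at 37 C, 5% CO2, then luminescence was recorded following 30min room-temperature luciferase reagent incubation.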

[17] = molecular target: Estrogen receptor beta (Homo sapiens) (UniProt Q92731); experiment: qHTS assay to identify small molecule agonists of the estrogen receptor beta (ER-beta) signaling pathway (AID 1259377; active = well fitted activation curve with a large enough effect in the signal ratio in the repeat runs, not every such curve was filed as active; inconclusive = weak or mixed curves, or effect the other way; the % refers to the signal ratio; note: % is set by controls: 0 for no effect and ±100 for the full control effect); details: ER-beta-UAS-bla HEK293T, beta-lactamase FRET ratio, 16 h; activation: at 92.4 µM (top of the series)
[18] = molecular target: Estrogen receptor beta (Homo sapiens) (UniProt Q92731); experiment: qHTS assay to identify small molecule antagonists of the estrogen receptor beta (ER-beta) signaling pathway (AID 1259378; active = well fitted inhibition curve with a large enough effect in the signal ratio in the repeat runs, not every such curve was filed as active; inconclusive = weak or mixed curves, or effect the other way; inactive = no such curve, though single readings can be large or run the other way; the % refers to the signal ratio; note: potency is the fitted concentration of half-maximal effect); details: ER-beta-UAS-bla HEK293T, beta-lactamase FRET ratio, 16 h; activity, negative = inhibition: at 92.4 µM (top of the series) unless noted
Summary of the method: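 Antagonist mode: compounds added to beta-lactamase reporter HEK293T ER-beta-UAS cells stimulated with E2 (1nM final), 16 hr at 37C. LiveBLAzer B/G FRET substrate, 2 hours room temperature, fluorescence read-out.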

[19] = molecular target: Thyrotropin receptor (Homo sapiens) (UniProt P16473); experiment: qHTS assay to identify small molecule antagonists of the thyroid stimulating hormone receptor (TSHR) signaling pathway (AID 1259385; calls by dose curve; note: potency is the fitted concentration of half-maximal effect; nearly all actives have a fitted effect of over 20% in size); details: TSHR-HEK293 cAMP HTRF, TSH-stimulated antagonist mode
[20] = qHTS assay to identify small molecule agonists of the estrogen receptor alpha (ER-alpha) signaling pathway in the presence of an antagonist - cell viability counter screen (AID 1259386); details: VM7Luc4E2 viability, CellTiter-Fluor fluorescence, 22 h;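 note: potency is the fitted concentration of half-maximal effect; cells exposed to compounds for 22 h at 37 °C before the viability read; nearly all actives have a fitted effect of over 30% in size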
Summary of the method: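 Viability counter screen using VM7Luc4E2 (full-length ER-alpha, four ERE-luciferase). The cells were treated with compounds alongside ICI-182,780 10.0nM for 22hr, and live-cell protease fluorescence was quantified with CellTiter-Fluor.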

[21] = molecular target: Progesterone receptor (Homo sapiens) (UniProt P06401); experiment: qHTS assay to identify small molecule antagonists of the progesterone receptor (PR) signaling pathway (AID 1346795; active = well fitted inhibition curve with a large enough effect in the signal ratio in the repeat runs, not every such curve was filed as active; inconclusive = weak or mixed curves; the % refers to the signal ratio; note: potency is the fitted concentration of half-maximal effect); details: PR-UAS-bla HEK293T, beta-lactamase FRET ratio, 16 h; activity change, negative = inhibition: at 92.4 µM (top of the series) unless noted
Summary of the method: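 Fluorescence intensity measured 2 hr after adding beta-lactamase FRET substrate to PR-UAS-bla HEK293T cells that had been co-treated 16 hr with compound and 1 nM R5020 (final concentration) in 2% charcoal-stripped FBS.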

[22] = qHTS assay to identify small molecule antagonists of the progesterone receptor (PR) signaling pathway - cell viability counter screen (AID 1346798); details: PR-UAS-bla HEK293T viability, CellTiter-Glo luminescence, 16 h
Summary of the method: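 CellTiter-Glo luminescence; PR-UAS-bla HEK293T, 3,000 cells/well; compound + R5020, 16 hr, 37C/5% CO2; 30 min RT before read.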

[23] = qHTS assay to identify small molecule agonists of the progesterone receptor (PR) signaling pathway - cell viability counter screen (AID 1346799; calls by dose curve; note: potency is the fitted concentration of half-maximal effect; nearly all actives have a fitted effect of over 45% in size); details: PR-UAS-bla HEK293T viability, CellTiter-Glo luminescence, 16 h
Summary of the method: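 In parallel with the beta-lactamase readout, cytotoxicity toward PR-UAS-bla HEK293T cells was measured by CellTiter-Glo luminescence following 16 hr compound incubation in 2% charcoal-stripped FBS medium.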

[24] = molecular target: Nuclear receptor subfamily 1 group I member 2 (Homo sapiens) (UniProt O75469); experiment: Human pregnane X receptor (PXR) small molecule agonists, qHTS assay (AID 1346982); details: PXR-Luc HepG2, CYP3A4 luciferase reporter, 24 h; note: potency is the fitted concentration of half-maximal effect; nearly all actives have a fitted effect of over 35% in size
Summary of the method: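 Compound-induced hPXR transactivation of a CYP3A4 luciferase reporter was scored in HepG2 PXR-Luc cells over 24 hr at 37 C, 5% CO2, by luminescence.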

[25] = molecular target: Cytochrome P450 2C9 (Homo sapiens) (UniProt P11712); experiment: Cytochrome P450 Family 2 Subfamily C Member 9 (CYP2C9) small molecule antagonists: luciferase reporter qHTS assay (AID 1671198); details: P450-Glo CYP2C9 enzyme assay, luciferin luminescence
Summary of the method: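 Enzyme-substrate mix preincubated with compound 10 min at room temperature; reaction started with NADPH regeneration solution, 1 h 37C. Luminescent luciferin product read after 20 min detection reagent.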

O=[N+]([O-])c1cccc([N+](=O)[O-])c1
inconclusive: Potency [1] 72.1 nM | activation [2] -4.19% | Potency [3] 2.28 µM | Potency [4] 63.7 µM | Potency [5] 22.6 µM | Potency [6] 4.05 µM | activity change, positive = activation [7] 1.66% | Potency [8] 51 µM | Potency [9] 51 µM | Potency [10] 45.5 µM | Potency [11] 57.2 µM | Potency [12] 51 µM | Potency [13] 51 µM | Potency [14] 10.1 µM | Potency [15] 45.1 µM | Potency [16] 63.7 µM | activation [17] -0.94% | Potency [18] 31.9 µM | Potency [19] 1.01 µM | Potency [20] 90 µM | Potency [21] 80.2 µM | Potency [22] 45.1 µM | Potency [23] 11.3 µM | Potency [24] 71.5 µM | Potency [25] 83 µM
